Data as given in PubChem BioAssay AID1224830 (NIAID, 2016)
Test: 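Regulators of TLR4 signalling towards TNF-alpha in macrophage-like cells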 (primary screen). System: human THP-1 monocytic leukaemia cells, TNF dual-luciferase reporter clone, PMA-differentiated to macrophage-like cells. Reagents: siRNA pool against human genes, 50 nM. Time to read-out: LPS for 4 h, given about 3 days after siRNA transfection. Conditions: bacterial LPS (TLR4 ligand), 10 ng/ml. Read-out: 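Ratio of firefly to renilla light, scaled to the plate median and expressed as a robust z-score per replicate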. Reading the numbers: TNF reporter robust z-score: higher = stronger TNF reporter response to LPS. Rule for the call: 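Each well counts as active if its z-score is over 2.8 or under -1.5; controls are left without a call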.
The deposit covers about 18,000 reagents; below is an unselected part. In the full data, about 2,900 (16%) got an active call. 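Calls are made per well; low scores hint the gene aids the LPS response, high scores that it dampens it.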 Unmarked entries are inactive. Repeated entries: four replicate wells of each siRNA pool.

UFD1 (GeneID 7353) | TNF reporter robust z-score = 0.11
UFD1 (GeneID 7353) | TNF reporter robust z-score = 1.43
UFD1 (GeneID 7353) | TNF reporter robust z-score = 1.71
UFD1 (GeneID 7353) | TNF reporter robust z-score = 1.6
ZUP1 (GeneID 221302) | TNF reporter robust z-score = 0.23
ZUP1 (GeneID 221302) | TNF reporter robust z-score = 0.26
ZUP1 (GeneID 221302) | TNF reporter robust z-score = -0.18
ZUP1 (GeneID 221302) | TNF reporter robust z-score = 0.66
SALL1 (GeneID 6299) | TNF reporter robust z-score = 0.62
SALL1 (GeneID 6299) | TNF reporter robust z-score = 1.29
SALL1 (GeneID 6299) | TNF reporter robust z-score = 1.78
SALL1 (GeneID 6299) | TNF reporter robust z-score = 2.1

Continued (4 carried over from the part before).
SALL1 (GeneID 6299) | TNF reporter robust z-score = 0.62
SALL1 (GeneID 6299) | TNF reporter robust z-score = 1.29
SALL1 (GeneID 6299) | TNF reporter robust z-score = 1.78
SALL1 (GeneID 6299) | TNF reporter robust z-score = 2.1
TIMM29 (GeneID 90580) | TNF reporter robust z-score = -1.22
TIMM29 (GeneID 90580) | TNF reporter robust z-score = -0.16
TIMM29 (GeneID 90580) | TNF reporter robust z-score = -0.79
TIMM29 (GeneID 90580) | TNF reporter robust z-score = -0.86
ATP8B1 (GeneID 5205) | TNF reporter robust z-score = -0.75
ATP8B1 (GeneID 5205) | TNF reporter robust z-score = -0.35
ATP8B1 (GeneID 5205) | TNF reporter robust z-score = -0.34
ATP8B1 (GeneID 5205) | TNF reporter robust z-score = -0.17
ANK1 (GeneID 286) | TNF reporter robust z-score = -0.05
ANK1 (GeneID 286) | TNF reporter robust z-score = 1.78
ANK1 (GeneID 286) | TNF reporter robust z-score = -1.03
ANK1 (GeneID 286) | TNF reporter robust z-score = -0.84
VPS4A (GeneID 27183) | TNF reporter robust z-score = 1.17
VPS4A (GeneID 27183) | TNF reporter robust z-score = 0.8
VPS4A (GeneID 27183) | TNF reporter robust z-score = -0.44
VPS4A (GeneID 27183) | TNF reporter robust z-score = 0.36
FOLH1 (GeneID 2346) | TNF reporter robust z-score = 1.17
FOLH1 (GeneID 2346) | TNF reporter robust z-score = -0.72
FOLH1 (GeneID 2346) | TNF reporter robust z-score = 0.64
FOLH1 (GeneID 2346) | TNF reporter robust z-score = -0.2
